The results in this text go back to article PMC8796119.

These are yes or no findings as the source states them, for the method shown. Binding seen in cells or lysates may run through a third protein. A yes stands for co-enrichment or nearness to the bait. Other partners may have been found.

The target in the assay is T1, PIWI (C. elegans) (UniProt P90786).
T1 sequence: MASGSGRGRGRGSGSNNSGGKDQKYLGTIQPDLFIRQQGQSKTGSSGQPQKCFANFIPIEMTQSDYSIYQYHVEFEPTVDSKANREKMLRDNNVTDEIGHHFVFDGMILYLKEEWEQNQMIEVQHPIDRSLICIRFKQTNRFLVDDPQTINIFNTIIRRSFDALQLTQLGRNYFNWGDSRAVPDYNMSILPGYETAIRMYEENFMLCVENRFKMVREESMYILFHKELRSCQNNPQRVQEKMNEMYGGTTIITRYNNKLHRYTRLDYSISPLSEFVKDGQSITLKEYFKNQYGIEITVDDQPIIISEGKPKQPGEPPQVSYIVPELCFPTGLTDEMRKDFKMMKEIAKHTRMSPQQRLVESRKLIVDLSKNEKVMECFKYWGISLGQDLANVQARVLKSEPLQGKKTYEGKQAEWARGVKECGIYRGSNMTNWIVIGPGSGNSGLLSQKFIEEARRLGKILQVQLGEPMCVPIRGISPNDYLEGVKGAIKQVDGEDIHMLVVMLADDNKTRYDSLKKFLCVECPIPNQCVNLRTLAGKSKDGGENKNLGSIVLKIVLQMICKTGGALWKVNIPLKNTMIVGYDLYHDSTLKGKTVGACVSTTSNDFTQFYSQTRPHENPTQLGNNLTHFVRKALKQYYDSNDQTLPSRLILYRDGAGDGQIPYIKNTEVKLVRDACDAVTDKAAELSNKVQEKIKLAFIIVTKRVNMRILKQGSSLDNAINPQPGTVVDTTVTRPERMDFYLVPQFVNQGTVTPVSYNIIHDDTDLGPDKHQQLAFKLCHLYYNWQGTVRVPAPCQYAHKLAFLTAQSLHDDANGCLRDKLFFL
As to the kind of experiment: affinity purification with mass spectrometry; IP-mass spec of PIWI (Figure S2D; Barucci et al., 2020 cited); conditions not given.

B1: HRDE-1 (protein, UniProt Q09249 1-1032)
chain: MADLLDKIMGSSSSNRIPKRDNRMNQDKDEPTSKRSAPMFSTPKSTTPIGRDSFATMDTMNVQMNMFPVDIKDMPHKIQRFQVDVIVCSSNGKQINANLGVLAAKGDVNSHNRRLAQYYIMRTVHDKLLVKFSGKSHHFLAYDCAATLYLPEGVYTGDDQEEVTLTIDDFPKEEWKFVSKLSRRKDDSYLVVLKPAGFVYTQGEVAQEEANRMELTRIIEIVTSQKLNNEDYLQFGNATFPRLSPPHSEPDAISEIRSGFAKVSRLSQNGGGKAFMTVDTKISPFYKDTSVIKFSSNKLSEMKGGGGGRGGYGRSDSRDSRGGYRGGRSDSRDFRGVYGNRGGNDRYRDESRGRRDMYDSRRDSGSSNGADYSPSDAAELEHAFGERGNTKRCIEEALKGLDVECTHLKGNLIRVSSIAENNAENTSFMMKDDKGEREVTVAEYFLLQYNIKLKYPRLPLVVSKRFKHESFFPMELLRIAPGQRIKVNKMSPTVQSAMTGRNASMPQHHVKLVQDILRDNLKLEQNKYMDAFGIKLMSTEPIQMTAKLLPPAQIKFKGQTYMPDMSRPAFRTQDKFVEPARIRKIGIVVFDNCIQMRQAEDFCDKLSNFCRDNGITVEKDSRDWSIRELNSSDSVAIQNLMKKWLDDRVDILVGIAREKKPDVHDILKYFEESIGLQTIQLCQQTVDKMMGGQGGRQTIDNVMRKFNLKCGGTNFFVEIPNAVRGKAVCSNNETLRKKLLEHVQFIGFEISHGASRTLFDRSRSQMDGEPSVVGVSYSLTNSTQLGGFTYLQTQKEYKLQKLDEFFPKCVRSYKEHSKTLPTRIVIYRVGAGEGNFNRVKEEVEEMRRTFDKIQPGYRPHLVVIIAQRASHARVFPSCISGNRATDQNIPSGTCVENVLTSYGYDEFILSSQTPLIGTVRPCKYTILVNDAKWSKNELMHLTYFRAFGHQVSYQPPSVPDVLYAAENLAKRGRNNYKIHQRYVNLQAVENRIIKDHSELINEDMREELAAAIVDEMSVAMNGMTIPKRNFWA
In the case of B1, the binding result is “binds”.

B2: MUT-16 (protein, UniProt O62011 1-1054)
chain: MSESDDDYPELDISDQYIDPLGIVVGPPPASYTETDREETPMQNRTEDDTNSYGNSSGEHDYDSYLDSGDDDFDVDAYYANDNMDEPPPETIPDNLIQNVIGRNDNADYDFSDASNPEIMKRDLQLFLSSSLLSNPLKFRSGYSSDELDDCLKSCMGYSLQVTAVLLLPPEIISQLPNDSKTEHAHALVRGGWLQSKEGAFFPVISDSERETVVSLMNGSEEQHKRQERKKKEADTFESEEKEIRTLLTFNMIAELLMAVRNEYSIRSVKYQILSTAYTNMVTGAAHANIFRKYKDILQLDPEKLWNNDWFKEYTNRGTLKKFLTTARFSEIVVSQANGKTVELYFRADDEGNRPVVLFTDEHIADVRNKWKTGNQRNQNYGSQGNYRAGGQRSDDRRGPQQRRNVIVPDPNYQPSTFAGGISNNADDDGSLQPTTSSHFNRNTDRSTSRPPRAPTSPVNRVMETDPLMGQGTSSGAPQRSAIPNPFGGAPALSRSTITNGNRGPSYGDRGERVQDVGDTTSDSEITSEGSYSDEDPEQKEIKRQRRKDKLKKKQERELRSREKHTKSKQQPPSKIETRFNTYKKKSESSATDTSNTPPVDTVNVALPTPVVESSSTTAAPSIPVSTRPEVVVPPENPAPLREVGNFYSKSNHDEDRRNVQLPFTPADTHKPIKVAPKEPVRNPLLKERPSANGFINRRLPSHPAPPPVNQSQPANQPMQTAVYQNSHPGAPYIPQQPTYQPQLPVQQPQPHQYAPQPIHHQQPIHQPMHGQQYPPVNQQQPIYQQPAPQYPPYNSIQNNPQHGPSPFNYSQVPQPAYNHVGQQPSHMSNQPHINQNGYQNSYNPNQGPTSSDPNYGCNPQFNHYGSRSVYHEDHSSQRRRSPDQFPPNPPEYDPHGNFKLADYERDRMTVGYSQNPHQFDHHGSHMPHQSQPQGYDNFNGNSAPYFNKNGGQSNHQPEAQRSFSVLSSNRQPSNRELIFQDGIEKELRDIILRYRSMNLTVLTVQELRTEVSRRPAIPRYIDIVQYIRDSSSVAIVERGDIEPYVVLKDDIRN
Take B2: the binding result is given as “binds”.
